No constants are given. Whether binding was seen depends on the method and setting. In cells and extracts the contact can be indirect. Binding calls can cover weak binding; strength is not graded here.
Target: EGFP-K15 SCRAPS A351C (human) (UniProt P19012)
Assay: co-IP; GFP-Trap Magnetic Agarose (25 μl beads) on 600 μg lysate of HeLa cells cotransfected with untagged K5 and the EGFP-tagged keratin; lysis in 10 mM Tris/Cl pH 7.5, 150 mM NaCl, 0.5 mM EDTA, 0.5% Nonidet P-40 Substitute (detergent-soluble pool); 4°C, 1 h; western blot for endogenous 14-3-3σ; 14-3-3σ signal normalized to GFP

Chains of the proteins cited; added tags and fusions are not shown. Lines headed by an entry give the natural chain unless they say otherwise; changes in a name come on top.
UniProt P19012: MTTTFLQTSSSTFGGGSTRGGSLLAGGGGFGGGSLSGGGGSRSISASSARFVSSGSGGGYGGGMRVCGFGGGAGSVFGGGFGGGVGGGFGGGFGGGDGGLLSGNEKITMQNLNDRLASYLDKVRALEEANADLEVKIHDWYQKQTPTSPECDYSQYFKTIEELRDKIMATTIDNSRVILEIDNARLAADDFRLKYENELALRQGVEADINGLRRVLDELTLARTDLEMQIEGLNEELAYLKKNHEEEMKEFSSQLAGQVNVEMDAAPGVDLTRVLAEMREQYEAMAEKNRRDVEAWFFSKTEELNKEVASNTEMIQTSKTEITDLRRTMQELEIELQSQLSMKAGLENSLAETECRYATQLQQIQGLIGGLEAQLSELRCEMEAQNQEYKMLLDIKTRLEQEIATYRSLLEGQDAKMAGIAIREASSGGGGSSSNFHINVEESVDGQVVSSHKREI
UniProt P31947: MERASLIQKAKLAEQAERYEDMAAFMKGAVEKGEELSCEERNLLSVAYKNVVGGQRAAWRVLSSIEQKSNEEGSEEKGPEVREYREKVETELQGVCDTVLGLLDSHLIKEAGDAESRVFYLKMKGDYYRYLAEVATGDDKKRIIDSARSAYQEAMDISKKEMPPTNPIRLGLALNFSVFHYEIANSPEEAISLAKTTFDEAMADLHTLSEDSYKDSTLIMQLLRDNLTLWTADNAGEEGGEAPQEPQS

“14-3-3σ (stratifin) (from UniProt P31947 1-248)” was tested, and the binding was “binds”.

Reference: article PMC12784932, “Keratin 15 promotes a progenitor cell state in basal keratinocytes of skin epidermis” (The Journal of Cell Biology, 2026)
